Test results as given in article PMC8927860, “Completing the family of human Eps15 homology domains: Solution structure of the internal Eps15 homology domain of γ‐synergin” (Protein Science : A Publication of the Protein Society, 2022).
These are yes or no findings as the source states them, for the method shown.

Target: T1, EH domain of human γ-synergin, longest construct (residues 279–388) (human) (UniProt Q9UMZ2)
T1 sequence: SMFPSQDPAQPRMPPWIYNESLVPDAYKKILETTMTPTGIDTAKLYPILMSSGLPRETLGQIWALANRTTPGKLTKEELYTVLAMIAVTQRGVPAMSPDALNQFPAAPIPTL
Assay: ITC; EHγ 50–200 μM in the cell, SCAMP1 fragments and peptides A, B, C at 700–2000 μM titrated in; 20 mM Tris, 100 mM NaCl, 2 mM CaCl2 pH 7.5, 20°C; one site binding model; both purified

B1: SCAMP1′, coiled coil fragment of SCAMP1 devoid of NPF-repeats (residues 65–130) (domain or fragment, UniProt O15126 65-130)
chain: SMKPTEEHPAYTQIAKEHALAQAELLKRQEELERKAAELDRREREMQNLSQHGRKNNWPPLPSNFPVG
binding: no binding (tested: 700–2000 μM titrated into 50–200 μM EHγ)
